Source: PubChem BioAssay AID1259254 (NCATS, 2017)
In all, the deposit lists about 59,000 reagents; below is a part drawn at random. Of all reagents, about 1,550 (2.6%) are marked active. 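G2 share is only a proxy for re-replication; each gene was hit by three separate siRNAs, and active genes were retested.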 Reagents against one gene are numbered here. Further read-outs or replicates are left out here. No sequences are given here. Not stated in the record: the amount of reagent.

Aim: 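Gene knock-downs that lead to re-replication, shown by excess G2 DNA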 (primary screen)
Cell system: human HCT116 colorectal cancer cells
Reagent: single siRNA against human genes
Time to read-out: 3 days
Measured: 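Imaged Hoechst DNA stain sorts each cell into a cycle phase by DNA amount; per plate, G2 fraction set to 0% for non-targeting and 100% for GMNN siRNA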
Direction: G2 robust z-score: higher = more G2 cells, more excess DNA replication
Active means: 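Active siRNAs have a G2 robust z of 5 or more median absolute deviations over the median, which in these data means about 38% or higher of GMNN control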

G2 robust z-score, by gene and reagent
AGA (aspartylglucosaminidase): #1 -0.985 inactive; #2 -0.223 inactive; #3 -0.913 inactive
LYAR (Ly1 antibody reactive): #1 0.957 inactive; #2 0.343 inactive; #3 -0.697 inactive
OR10V1 (olfactory receptor family 10 subfamily V member 1): #1 3.43 inactive; #2 1.05 inactive; #3 0.83 inactive
TMEM71 (transmembrane protein 71): #1 -0.102 inactive; #2 -0.603 inactive; #3 -0.297 inactive
PLD3 (phospholipase D family member 3): #1 0.359 inactive; #2 2.49 inactive; #3 -0.692 inactive
PRELID3BP10 (PRELI domain containing 3B pseudogene 10): #1 -0.638 inactive; #2 -0.483 inactive; #3 4.29 inactive; #4 -0.653 inactive; #5 0.8 inactive; #6 0.705 inactive
RPL13AP17 (ribosomal protein L13a pseudogene 17): #1 -0.762 inactive; #2 0.342 inactive; #3 0.395 inactive
ARL11 (ARF like GTPase 11): #1 5.85 active; #2 -0.146 inactive; #3 -1.01 inactive
SHANK3 (SH3 and multiple ankyrin repeat domains 3): #1 -0.44 inactive; #2 0.192 inactive; #3 -0.24 inactive
